PubChem BioAssay AID651640 (Broad Institute, 2012)
Out of some 350,000 compounds screened, about 6,000 (1.7%) were called active. Inconclusive results, whose numbers are uncertain, are shown with a selection of clear calls. No stated cut-off is given here; in the data, active means CPE inhibition above about 20% (passing the limit was not always enough); inconclusive means no clear call, values can overlap the other calls; tested in BHK-21 cells.

assay: protection of cells from dengue 2 killing – plate reader, single concentration, primary screen (AID 651640); conditions: DENV2-infected cells, cytopathic effect rescue, at 9.99 µM, hits give high values;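 further: 0% = median of neutral control wells and 100% = median of positive control wells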

Structure (SMILES)	CPE inhibition
COc1ccccc1S(=O)(=O)N(C)C[C@H]1OCc2cn(nn2)CCCC(=O)N([C@@H](C)CO)C[C@@H]1C	inconclusive: 58.4%
N#C[C@@H]1[C@@H](c2ccc(C#Cc3ccc(F)cc3)cc2)[C@H](CO)N1C(=O)C1CCCC1	active: 23%
COc1ccc(C(=O)NCc2nnc(SCC(=O)c3ccccc3)n2C)cc1OC	inconclusive: 49%
C[C@H]1CN([C@@H](C)CO)C(=O)c2cccc(NC(=O)c3ccc(-c4nccs4)cc3)c2O[C@H]1CN(C)Cc1ccc2c(c1)OCO2	inactive: 10.5%
O=C(NCC[C@H]1CC[C@H](NS(=O)(=O)c2ccc(Oc3ccccc3)cc2)[C@@H](CO)O1)C1CC1	active: 85.3%
Cc1ccccc1SCc1noc(C(=O)NCC2CCCO2)c1C(=O)O (stereo not given)	inconclusive: 31.2%
C[C@@H]1CCCCO[C@H](CN(C)C(=O)NC2CCCCC2)[C@@H](C)CN([C@H](C)CO)C(=O)c2cc(NC(=O)NC3CCCCC3)ccc2O1	active: 77.6%
CCCn1nnc(NC(=O)c2ccccc2Cl)n1	inconclusive: 20.6%
C[C@@H]1CN([C@@H](C)CO)C(=O)c2cccc(NC(=O)Nc3ccc(C(F)(F)F)cc3)c2O[C@H]1CN(C)S(=O)(=O)c1cccs1	inconclusive: 20.7%
CO[C@H]1CN(C)C(=O)c2ccc(NC(=O)C3CC3)cc2OC[C@@H](C)N(C(=O)Cc2ccccn2)C[C@@H]1C	inactive: 10.1%
O=c1ccn([C@@H]2O[C@H](CNS(=O)(=O)C3CC3)[C@@H](O)[C@H]2O)c(=O)[nH]1	inconclusive: 87.2%
COCC(=O)N1C[C@H](C)[C@@H](OC)CN(C)C(=O)c2cc(NC(=O)c3ccc(OC)cc3)ccc2OC[C@H]1C	inconclusive: 27.2%
C[C@@]12C(=O)Nc3ccc(Cl)cc3C(=O)N1[C@H]1c3cc(Br)ccc3OC[C@@H]1[C@@H]2c1ccccc1	inconclusive: 48.6%
Cc1ccccc1C(=O)N1CCc2c([nH]c3ccccc23)C1C(F)(F)F (stereo not given)	inconclusive: 32.5%
O=S(=O)(N[C@@H]1CC[C@@H](CCn2cc(-c3ccccn3)nn2)O[C@H]1CO)c1cccc(Cl)c1	active: 36.7%
COc1ccc(C#Cc2ccc3c(c2)[C@H]2[C@H](CCN2Cc2nccs2)[C@@H](CO)N3)cc1	active: 27.7%
C[C@H]1CN([C@@H](C)CO)C(=O)c2cc(N(C)C)ccc2O[C@@H]1CN(C)S(=O)(=O)c1cccs1	inactive: 7.06%
O=C(Nc1ccccc1)Nc1ccc2c(c1)[C@@H]1C[C@H](CC(=O)N3CCOCC3)O[C@@H](CO)[C@@H]1O2	inconclusive: 21.2%
O=C(C[C@@H]1C[C@@H]2c3cc(NS(=O)(=O)c4ccc(F)cc4)ccc3O[C@@H]2[C@H](CO)O1)N1CCOCC1	inactive: 9.33%
O=C(Nc1nccs1)c1ccc(CSc2ccccc2)o1	inconclusive: 25.1%
CN1[C@@H]2c3ccc(-c4ccncc4)c(=O)n3C[C@H]1[C@H](CO)[C@H]2C(=O)N1CCC(Cc2ccccc2)CC1	active: 24.6%
CCOCCCn1c(SCC(=O)Nc2ccc3[nH]c(=O)[nH]c3c2)nc2ccccc2c1=O	inconclusive: 27.4%
C[C@@H]1CCCCO[C@@H](CN(C)C)[C@H](C)CN([C@H](C)CO)C(=O)c2cc(NC(=O)Nc3ccc4c(c3)OCO4)ccc2O1	inactive: -19.2%
COc1ccc(CN(C)C[C@@H]2Oc3c(NS(=O)(=O)c4ccc(OC)cc4)cccc3C(=O)N([C@H](C)CO)C[C@@H]2C)cc1	inconclusive: 21.5%

Structure (SMILES)	CPE inhibition
COc1cc(OC)cc(C(=O)NCCSCc2ccc(Cl)cc2)c1	inconclusive: 22.2%
CO[C@@H]1CN(C)C(=O)c2cc(NC(=O)C3CCCC3)ccc2OC[C@@H](C)N(CCC(F)(F)F)C[C@@H]1C	inactive: 2.21%
COc1ccc(NC(=O)c2cc(C3CCCCN3C(=O)c3ccc(Cl)cc3)on2)c(C)c1 (stereo not given)	inactive: -15.2%
COC(=O)C1=C(C(=O)OC)[C@@H]2N(C)c3ccccc3[C@@]23C[C@@H](C(=O)OC)N(C(=O)c2ccc(Br)cc2)C3=N1	inconclusive: 70.7%
CC1CCN(C(=O)COC(=O)CNC(=O)C23CC4CC(CC(C4)C2)C3)CC1	inconclusive: 28.2%
COc1ccc2c3c([nH]c2c1)[C@@H](CO)N(Cc1ccncc1)CC31CN(C(=O)Cc2ccncc2)C1	inconclusive: 27.3%
CCCCN(CCCNC(=O)c1ccc(CS(=O)(=O)c2c(Cl)cccc2Cl)o1)Cc1ccccc1	inconclusive: 23.8%
Cc1noc(C)c1NC(=O)Nc1ccc2c(c1)CC(=O)N([C@H](C)CO)C[C@@H](C)[C@H](CN(C)Cc1ccncc1)O2	inconclusive: 30.2%
O=C(NC1CCCC1)c1cccc2c1C(=O)c1ccc(/C=C/c3ccccc3)cc1S2(=O)=O	inactive: -10.2%
Cc1ccc(C(=O)Nc2cccc(C(F)(F)F)c2)cc1NC(=O)c1nccn1C	inconclusive: 21.8%
Cc1ccc(-c2nc(N3CCN(C)CC3)c3ccccc3n2)cc1	active: 24.9%
Cc1cn(CC(=O)NCCCc2ccccc2)c(=O)[nH]c1=O	inactive: -19.9%
CN(CCC1CCCCO1)C(=O)CCc1nnc(Cc2c[nH]c3ccccc23)o1 (stereo not given)	inactive: -1.04%
CO[C@@H]1CN(C)C(=O)c2ccc(NC(=O)c3cccc(F)c3)cc2OC[C@@H](C)N(C)C[C@H]1C	inactive: 3.5%
CC1(C(=O)NS(=O)(=O)c2ccc(C#N)cc2)CCN1C(=O)Cc1cccc2ccccc12 (stereo not given)	inconclusive: 25.1%
COc1ccc(CNC(=O)C2=CC(c3ccc(OC)c(OC)c3)=NS(=O)(=O)N2C)cc1	inactive: 0.31%
CC(C)NC(=O)Nc1cccc2c1O[C@H](CN(C)Cc1ccncc1)[C@@H](C)CN([C@H](C)CO)C2=O	inactive: -6.08%
O=C(NC1CCCCC1)C(CCc1ccccc1)N1CCOCC1 (stereo not given)	inconclusive: 22%
CN(C)c1ncnc2c1ncn2[C@H]1CN(Cc2cccs2)C[C@@H](CO)O1	inconclusive: 30.8%
CC(C)NC(=O)Nc1ccc2c(c1)C(=O)N(C)[C@H]1CC[C@@H](CC(=O)Nc3ccccc3)O[C@@H]1CO2	inactive: -3.82%
O=C(CN1C(=O)NC2(CCCc3ccccc32)C1=O)NCc1ccc(Cl)cc1Cl (stereo not given)	inconclusive: 39.6%
CC(C)(O)/C=C/C[C@](C)(O)C1CC[C@]2(C)C1[C@H](O[C@H]1O[C@@H](CO)[C@H](O)[C@@H](O)[C@@H]1O)CC1[C@@]3(C)CC[C@H](O)C(C)(C)C3[C@@H](O)C[C@]12C (stereo not given in full)	active: 42.1%
C[C@@H]1CN([C@H](C)CO)S(=O)(=O)c2ccc(C#CC(C)(C)O)cc2O[C@@H]1CN(C)Cc1ccc(-c2ccccc2)cc1	inactive: -6.5%
Nc1nc(-c2ccccc2)c(N=Nc2ccc(Cl)cc2)s1	inconclusive: 22.8%

Structure (SMILES)	CPE inhibition
COc1cccc(-c2ccc(CC[C@H]3O[C@H]4CC[C@H](CO)O[C@H]4C[C@@H]3NC(=O)c3cnccn3)cc2)c1	inconclusive: 20.4%
O=C(Cc1ccncc1)NCC[C@@H]1CC[C@H](NC(=O)C2CCCCC2)[C@@H](CO)O1	inconclusive: 22.6%
O=C1NC[C@@H](CCCCN2CCN(Cc3ccccc3)C(=O)C2=O)N(CCC2CCCCC2)C1=O	active: 21.4%
CC(Oc1ccc2ccc(=O)oc2c1)C(=O)NCCN1CCOCC1 (stereo not given)	inactive: 5.28%
Cc1ccc(S(=O)(=O)N2Cc3ccccc3CC2C(N)=O)cc1 (stereo not given)	inconclusive: 30.7%
CCCNC(=O)N(C)C[C@@H]1Oc2ncc(-c3ccncc3)cc2C(=O)N([C@H](C)CO)C[C@@H]1C	inconclusive: 24.2%
C[C@@H]1CCCCO[C@H](CN(C)C(=O)NC2CCCCC2)[C@H](C)CN([C@@H](C)CO)C(=O)c2cc(NS(=O)(=O)c3ccc(F)cc3)ccc2O1	active: 50.6%
O=C(Nc1ccccn1)c1ccc(Cl)s1	inconclusive: 42.3%
CCCNC(=O)[C@H]1[C@H](CO)[C@H]2Cn3c(ccc(C4=CCCCC4)c3=O)[C@@H]1N2	inactive: 3.87%
COc1ccc(C=C2SC(=S)NC2=O)cc1	inconclusive: 53.4%
COc1ccc(-n2c(=S)[nH]c3ncccc3c2=O)cc1	inactive: 8.64%
CCCCNC(=O)O[C@H]1C[C@@H]2CCN3C(=O)CCC[C@H]([C@H]1Cc1ccccc1)[C@H]23	active: 53.9%
COc1ccc(NC(=O)c2cc(-c3ccc(F)cc3OC)n[nH]2)c(C)c1	inconclusive: 45.6%
N#CC1(Nc2cccc(Br)c2)C(=O)Nc2ccccc21 (stereo not given)	inconclusive: 47.3%
CC(=O)N1CCN(Cc2cc(=O)oc3ccccc23)CC1	inconclusive: 25.2%
Cc1ccccc1S(=O)(=O)N1CC(=O)N2[C@H](CO)[C@H](c3ccc(C#CCC4CCCC4)cc3)[C@@H]2C1	inconclusive: 40.5%
Cc1cc(C)c(OCCCNC2CCCC2)c(Br)c1	active: 28.5%
CC(C)C[C@@H]1CN(CCCC[C@H]2CNC(=O)C(=O)N2CCC2CCCCC2)C(=O)C(=O)N1Cc1ccccc1	active: 24.1%
C[C@@H]1CN([C@@H](C)CO)C(=O)c2cccc(NS(=O)(=O)c3ccc(F)cc3)c2O[C@@H]1CN(C)Cc1ccc(C(=O)O)cc1	active: 49.4%
Cc1ccc2nc(NC(=O)C3CCCN(S(=O)(=O)c4cnc[nH]4)C3)sc2c1 (stereo not given)	inconclusive: 80.8%
CSC(=NS(=O)(=O)c1ccccc1)NNC(=O)c1c(-c2c(Cl)cccc2Cl)noc1C	inactive: 1.2%
CCOC(=O)c1c(CC(C)C)csc1NC(=O)COC(=O)c1cnc(C)cn1	inconclusive: 42.2%

Of the compounds above, these contain a cyano group.
Structure (SMILES)	CPE inhibition
N#C[C@@H]1[C@@H](c2ccc(C#Cc3ccc(F)cc3)cc2)[C@H](CO)N1C(=O)C1CCCC1	active: 23%
CC1(C(=O)NS(=O)(=O)c2ccc(C#N)cc2)CCN1C(=O)Cc1cccc2ccccc12 (stereo not given)	inconclusive: 25.1%
N#CC1(Nc2cccc(Br)c2)C(=O)Nc2ccccc21 (stereo not given)	inconclusive: 47.3%

Not a retest: three of the compounds above.
Structure (SMILES)	CPE inhibition
CCCNC(=O)N(C)C[C@@H]1Oc2ncc(-c3ccncc3)cc2C(=O)N([C@H](C)CO)C[C@@H]1C	inconclusive: 24.2%
C[C@@H]1CCCCO[C@H](CN(C)C(=O)NC2CCCCC2)[C@H](C)CN([C@@H](C)CO)C(=O)c2cc(NS(=O)(=O)c3ccc(F)cc3)ccc2O1	active: 50.6%
O=C(Nc1ccccn1)c1ccc(Cl)s1	inconclusive: 42.3%
